Test results taken from the supplement of paper PMC4604168 (melanoma cell lines).
This is one part of the list. Repeats are few or missing, and single values can be far off.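 The apoptosis fraction was the count of cleaved-PARP antibody-stained nuclei relative to all DNA-stained nuclei, imaged in 1,536-well plates. Screening doses were set so most cells survived, and baseline and induced cleaved-PARP levels vary greatly across cell lines.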

Test system: CBRC014 (line from a melanoma biopsy)
Assay: cleaved PARP positive nuclei fraction relative to DMSO control; melanoma cells; higher = more apoptosis
Settings: library dose: low library concentration; 72 h

SMILES | cleaved PARP positive nuclei fraction [%]
CCN(CC)CCNC(=O)c1c(C)[nH]c(/C=C2\C(=O)Nc3ccc(F)cc32)c1C [sunitinib] + c1cc(-c2cnn3cc(-c4ccc(OCCN5CCCCC5)cc4)cnc23)ccn1 [Dorsomorphin] (first compound 0.4 µM, partner dose 0.4 µM) | 78.6
C[C@]1(O)C[C@@H](c2nc(-c3ccc4ccc(-c5ccccc5)nc4c3)c3c(N)nccn32)C1 + Oc1nc(-c2ccc(C(F)(F)F)cc2)nc2c1CSCC2 [XAV939] (first compound 0.4 µM, partner dose 2 µM) | 102
C[C@@H](N)c1ccc(C(=O)Nc2ccnc3[nH]ccc23)cc1 + COc1ccc(-c2ccc3c(N4CCOCC4)nc(N4C[C@@H](C)O[C@@H](C)C4)nc3n2)cc1CO [KU0063794] (first compound 0.4 µM, partner dose 0.02 µM) | 95.3
CCCCCCCCc1ccc(CCC(N)(CO)CO)cc1 [fingolimod] + O=C(O)C(=O)Nc1sc2c(c1C(=O)O)CCNC2 [TCS401] (first compound 2 µM, partner dose 1.66667 µM) | 81.2
CCN(CC)CCNC(=O)c1c(C)[nH]c(/C=C2\C(=O)Nc3ccc(F)cc32)c1C [sunitinib] + Cn1cc(/C=C2\C(=O)Nc3cccnc32)c2ccccc21 [GW441756] (first compound 0.4 µM, partner dose 0.4 µM) | 98.5
CC1(C)CCC(c2ccc(Cl)cc2)=C(CN2CCN(c3ccc(C(=O)NS(=O)(=O)c4ccc(N[C@H](CCN5CCOCC5)CSc5ccccc5)c(S(=O)(=O)C(F)(F)F)c4)cc3)CC2)C1 + c1cc(-c2cnn3cc(-c4ccc(OCCN5CCCCC5)cc4)cnc23)ccn1 [Dorsomorphin] (first compound 0.4 µM, partner dose 0.4 µM) | 421
C[C@@H](N)c1ccc(C(=O)Nc2ccnc3[nH]ccc23)cc1 + COC(=O)c1sccc1S(=O)(=O)Nc1ccc(Nc2ccccc2)cc1OC [GSK0660] (first compound 0.4 µM, partner dose 1 µM) | 126
CCCCCCCCc1ccc(CCC(N)(CO)CO)cc1 [fingolimod] + COc1ccc(-c2ccc3c(N4CCOCC4)nc(N4C[C@@H](C)O[C@@H](C)C4)nc3n2)cc1CO [KU0063794] (first compound 2 µM, partner dose 0.02 µM) | 422
CCCCCCCCc1ccc(CCC(N)(CO)CO)cc1 [fingolimod] + N#Cc1c(O)c2c(-c3ccc(-c4ccccc4O)cc3)csc2[nH]c1=O [A769662] (first compound 2 µM, partner dose 2 µM) | 210

Three entries from above in a different format.
SMILES	cleaved PARP positive nuclei fraction [%]
C[C@@H](N)c1ccc(C(=O)Nc2ccnc3[nH]ccc23)cc1 + COc1ccc(-c2ccc3c(N4CCOCC4)nc(N4C[C@@H](C)O[C@@H](C)C4)nc3n2)cc1CO [KU0063794] (first compound 0.4 µM, partner dose 0.02 µM)	95.3
CCCCCCCCc1ccc(CCC(N)(CO)CO)cc1 [fingolimod] + O=C(O)C(=O)Nc1sc2c(c1C(=O)O)CCNC2 [TCS401] (first compound 2 µM, partner dose 1.66667 µM)	81.2
CCN(CC)CCNC(=O)c1c(C)[nH]c(/C=C2\C(=O)Nc3ccc(F)cc32)c1C [sunitinib] + Cn1cc(/C=C2\C(=O)Nc3cccnc32)c2ccccc21 [GW441756] (first compound 0.4 µM, partner dose 0.4 µM)	98.5

Test system: CBRC016 (line from a melanoma biopsy)
Assay: as above
Settings: library dose: low library concentration; 72 h

SMILES | cleaved PARP positive nuclei fraction [%]
CC(=O)O[C@@]12CO[C@@H]1C[C@H](O)[C@@]1(C)C(=O)[C@H](O)C3=C(C)[C@@H](OC(=O)[C@H](O)[C@@H](NC(=O)OC(C)(C)C)c4ccccc4)C[C@@](O)([C@@H](OC(=O)c4ccccc4)[C@H]21)C3(C)C [Docetaxel] + CCCCCCCCCCCC1=C(O)C(=O)C=C(O)C1=O [Embelin] (first compound 0.0001 µM, partner dose 1.2 µM) | 225
NC1(c2ccc(-c3nc4ccn5c(=O)[nH]nc5c4cc3-c3ccccc3)cc2)CCC1 + CC(C)CCN1c2nc(Nc3cc(F)c(O)c(F)c3)ncc2N(C)C(=O)C1C [BID1870] (first compound 0.4 µM, partner dose 0.2 µM) | 39.8
CS(=O)(=O)c1ccc(C(=O)Nc2ccc(Cl)c(-c3ccccn3)c2)c(Cl)c1 [vismodegib] + CCCCCCCCCCCC1=C(O)C(=O)C=C(O)C1=O [Embelin] (first compound 1 µM, partner dose 1.2 µM) | 43.5
COc1ccc(C2=N[C@@H](c3ccc(Cl)cc3)[C@@H](c3ccc(Cl)cc3)N2C(=O)N2CCNC(=O)C2)c(OC(C)C)c1 [Nutlin-3] + COc1ccc(-c2ccc3c(N4CCOCC4)nc(N4C[C@@H](C)O[C@@H](C)C4)nc3n2)cc1CO [KU0063794] (first compound 0.1 µM, partner dose 0.02 µM) | 73.8
Cn1cnc2c(F)c(Nc3ccc(Br)cc3Cl)c(C(=O)NOCCO)cc21 [selumetinib] + CC(C)CCN1c2nc(Nc3cc(F)c(O)c(F)c3)ncc2N(C)C(=O)C1C [BID1870] (first compound 0.015 µM, partner dose 0.2 µM) | 70.6
CC1(C)CCC(c2ccc(Cl)cc2)=C(CN2CCN(c3ccc(C(=O)NS(=O)(=O)c4ccc(N[C@H](CCN5CCOCC5)CSc5ccccc5)c(S(=O)(=O)C(F)(F)F)c4)cc3)CC2)C1 + Cc1cc([N+](=O)[O-])ccc1NS(=O)(=O)c1cc(Cl)ccc1Cl [FH535] (first compound 0.4 µM, partner dose 1 µM) | 627
CCN(CC)CCNC(=O)c1c(C)[nH]c(/C=C2\C(=O)Nc3ccc(F)cc32)c1C [sunitinib] + Cc1cc([N+](=O)[O-])ccc1NS(=O)(=O)c1cc(Cl)ccc1Cl [FH535] (first compound 0.4 µM, partner dose 1 µM) | 408
Cn1sc(=O)n(Cc2ccccc2)c1=O + COc1cc2ncnc(Nc3ccc(Oc4ccccc4)cc3)c2cc1OC [SrcI1] (first compound 0.4 µM, partner dose 2 µM) | 46.1
NC1(c2ccc(-c3nc4ccn5c(=O)[nH]nc5c4cc3-c3ccccc3)cc2)CCC1 + COC(=O)c1sccc1S(=O)(=O)Nc1ccc(Nc2ccccc2)cc1OC [GSK0660] (first compound 0.4 µM, partner dose 1 µM) | 58.4
CN(c1ncccc1CNc1nc(Nc2ccc3c(c2)CC(=O)N3)ncc1C(F)(F)F)S(C)(=O)=O + CC(C)CCN1c2nc(Nc3cc(F)c(O)c(F)c3)ncc2N(C)C(=O)C1C [BID1870] (first compound 0.08 µM, partner dose 0.2 µM) | 102
Cn1sc(=O)n(Cc2ccccc2)c1=O + O=C(Nc1ccccc1)c1cc([N+](=O)[O-])ccc1Cl [GW9662] (first compound 0.4 µM, partner dose 2 µM) | 127
NC(=O)c1ccc(N(C(N)=O)c2c(F)cccc2F)nc1-c1ccc(F)cc1F + Cn1cc(/C=C2\C(=O)Nc3cccnc32)c2ccccc21 [GW441756] (first compound 0.4 µM, partner dose 0.4 µM) | 52.5
CCN(CC)CCNC(=O)c1c(C)[nH]c(/C=C2\C(=O)Nc3ccc(F)cc32)c1C [sunitinib] + COC(=O)c1sccc1S(=O)(=O)Nc1ccc(Nc2ccccc2)cc1OC [GSK0660] (first compound 0.4 µM, partner dose 1 µM) | 71.6
Cn1sc(=O)n(Cc2ccccc2)c1=O + CC(C)CCN1c2nc(Nc3cc(F)c(O)c(F)c3)ncc2N(C)C(=O)C1C [BID1870] (first compound 0.4 µM, partner dose 0.2 µM) | 66.4
Cn1sc(=O)n(Cc2ccccc2)c1=O + COc1cc(N2CCC(N3CCN(C)CC3)CC2)ccc1Nc1ncc(Cl)c(Nc2ccccc2S(=O)(=O)C(C)C)n1 [NVP-TAE684] (first compound 0.4 µM, partner dose 0.08 µM) | 35.6
NC1(c2ccc(-c3nc4ccn5c(=O)[nH]nc5c4cc3-c3ccccc3)cc2)CCC1 + CCc1ccc(CCOc2ccc(CC3SC(=O)NC3=O)cc2)nc1 [pioglitazone] (first compound 0.4 µM, partner dose 2 µM) | 42.1
NC(=O)c1ccc(N(C(N)=O)c2c(F)cccc2F)nc1-c1ccc(F)cc1F + COc1cc(N2CCC(N3CCN(C)CC3)CC2)ccc1Nc1ncc(Cl)c(Nc2ccccc2S(=O)(=O)C(C)C)n1 [NVP-TAE684] (first compound 0.4 µM, partner dose 0.08 µM) | 18.7
NC1(c2ccc(-c3nc4ccn5c(=O)[nH]nc5c4cc3-c3ccccc3)cc2)CCC1 + Cc1cc([N+](=O)[O-])ccc1NS(=O)(=O)c1cc(Cl)ccc1Cl [FH535] (first compound 0.4 µM, partner dose 1 µM) | 228
Cn1cnc2c(F)c(Nc3ccc(Br)cc3Cl)c(C(=O)NOCCO)cc21 [selumetinib] + Cn1cc(/C=C2\C(=O)Nc3cccnc32)c2ccccc21 [GW441756] (first compound 0.015 µM, partner dose 0.4 µM) | 130
CC(=O)O[C@@]12CO[C@@H]1C[C@H](O)[C@@]1(C)C(=O)[C@H](O)C3=C(C)[C@@H](OC(=O)[C@H](O)[C@@H](NC(=O)OC(C)(C)C)c4ccccc4)C[C@@](O)([C@@H](OC(=O)c4ccccc4)[C@H]21)C3(C)C [Docetaxel] + COc1ccc2c(c1)CCC1C2CCC2(C)C(NCCCCCCN3C(=O)C=CC3=O)CCC12 [U73122] (first compound 0.0001 µM, partner dose 0.4 µM) | 168
CN(c1ncccc1CNc1nc(Nc2ccc3c(c2)CC(=O)N3)ncc1C(F)(F)F)S(C)(=O)=O + Oc1cc(-c2nc(-c3ccccc3)[nH]c2-c2ccncc2)ccc1Cl [L779450] (first compound 0.08 µM, partner dose 0.2 µM) | 82.2
CCN(CC)CCNC(=O)c1c(C)[nH]c(/C=C2\C(=O)Nc3ccc(F)cc32)c1C [sunitinib] + O=c1cc(-c2cccc3c2Sc2ccccc2S3)oc(N2CCOCC2)c1 [KU55933] (first compound 0.4 µM, partner dose 1 µM) | 18.5
